PubChem BioAssay AID1259405 | NCATS – 2018
This is an unselected part of about 50,000 deposited reagents. About 4,000 of them (8%) were called active. 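Mouse siRNA library applied to hamster cells; one well for each siRNA.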

Assay: 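Mouse-designed siRNAs used to find CHO productivity engineering targets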 (primary screen)
System: Chinese hamster CHO-K1 ovary cells with stable secreted eGFP expression
Knock-down reagent: single siRNA against mouse genes, 0.8 pmol siRNA per well (2 µl of 400 nM stock)
Duration: 3 days
Detection: 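Per-well intracellular GFP measured by laser scanning cytometry, plus viability from ATP luminescence, each relative to plate median of non-targeting control wells, in %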
Direction: GFP, % of control: higher = more GFP per well, higher productivity; viability (ATP), % of control: higher = more viable cells (more ATP)
Hit rule: 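a knock-down is called active if GFP reaches 120% or more of non-targeting control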

What did the screen give for Lacc1 (GeneID 210808) [SID363552182]?
GFP, % of control: 73.3; viability (ATP), % of control: 56.9; activity call: inactive

With Lacc1 (GeneID 210808) [SID363585318], what was measured?
GFP, % of control: 65.1; viability (ATP), % of control: 77.4; activity call: inactive

Which result is listed for Lacc1 (GeneID 210808) [SID363585669]?
GFP, % of control: 108; viability (ATP), % of control: 93.9; activity call: inactive

With Rhd (GeneID 19746) [SID363574836], how do the results read?
GFP, % of control: 121; viability (ATP), % of control: 68.5; activity call: active

With Rhd (GeneID 19746) [SID363575892], how do the results read?
GFP, % of control: 65.4; viability (ATP), % of control: 82.2; activity call: inactive

How did the screen score Rhd (GeneID 19746) [SID363580468]?
GFP, % of control: 82; viability (ATP), % of control: 72.5; activity call: inactive

What is on record for Pgap1 (GeneID 241062) [SID363547556]?
GFP, % of control: 135; viability (ATP), % of control: 114; activity call: active

For Pgap1 (GeneID 241062) [SID363558325], how do the results read?
GFP, % of control: 125; viability (ATP), % of control: 75.7; activity call: active

With Pgap1 (GeneID 241062) [SID363560083], what does the deposit list?
GFP, % of control: 75.2; viability (ATP), % of control: 63.7; activity call: inactive

What is on record for Klhl28 (GeneID 66689) [SID363546852]?
GFP, % of control: 87.5; viability (ATP), % of control: 83.5; activity call: inactive

For Klhl28 (GeneID 66689) [SID363549664], what was measured?
GFP, % of control: 84.6; viability (ATP), % of control: 66.9; activity call: inactive

What is on record for Klhl28 (GeneID 66689) [SID363587718]?
GFP, % of control: 130; viability (ATP), % of control: 121; activity call: active

How did the screen score Per2 (GeneID 18627) [SID363547469]?
GFP, % of control: 41.2; viability (ATP), % of control: 40.4; activity call: inactive

For Per2 (GeneID 18627) [SID363558238], what was measured?
GFP, % of control: 55.9; viability (ATP), % of control: 77.6; activity call: inactive

For Per2 (GeneID 18627) [SID363559996], what was measured?
GFP, % of control: 79.9; viability (ATP), % of control: 93.3; activity call: inactive

With Gpc3 (GeneID 14734) [SID363553828], what was measured?
GFP, % of control: 75.8; viability (ATP), % of control: 69.9; activity call: inactive

With Gpc3 (GeneID 14734) [SID363561785], how do the results read?
GFP, % of control: 119; viability (ATP), % of control: 52.4; activity call: inactive

What is on record for Gpc3 (GeneID 14734) [SID363565523]?
GFP, % of control: 118; viability (ATP), % of control: 68.3; activity call: inactive

A stretch taken from the entries so far, as a working copy:
Per2 (GeneID 18627) [SID363559996] — GFP, % of control: 79.9; viability (ATP), % of control: 93.3; activity call: inactive
Gpc3 (GeneID 14734) [SID363553828] — GFP, % of control: 75.8; viability (ATP), % of control: 69.9; activity call: inactive
Gpc3 (GeneID 14734) [SID363561785] — GFP, % of control: 119; viability (ATP), % of control: 52.4; activity call: inactive
